Data on 27 targets can be found in the supplement of paper PMC12819154, “High-throughput peptide-centric local stability assay extends protein–ligand identification to membrane proteins, tissues and bacteria” (Nature Structural & Molecular Biology, 2025).

Protein sequences, listed by entry. Tags and fused reporters are not part of them. Lines headed by an entry give the natural chain unless they say otherwise; changes in a name come on top.
UniProt Q9NNX1: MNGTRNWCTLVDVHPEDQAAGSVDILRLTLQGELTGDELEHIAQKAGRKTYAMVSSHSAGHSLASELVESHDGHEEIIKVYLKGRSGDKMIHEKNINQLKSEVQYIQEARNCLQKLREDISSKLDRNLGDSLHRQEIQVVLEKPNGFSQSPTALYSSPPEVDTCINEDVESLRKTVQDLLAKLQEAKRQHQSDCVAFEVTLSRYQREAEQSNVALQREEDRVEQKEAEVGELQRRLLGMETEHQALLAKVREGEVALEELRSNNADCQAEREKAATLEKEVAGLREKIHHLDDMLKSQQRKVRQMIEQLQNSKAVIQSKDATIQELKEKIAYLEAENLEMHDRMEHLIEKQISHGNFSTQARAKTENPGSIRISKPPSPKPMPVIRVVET
UniProt Q9H4M9: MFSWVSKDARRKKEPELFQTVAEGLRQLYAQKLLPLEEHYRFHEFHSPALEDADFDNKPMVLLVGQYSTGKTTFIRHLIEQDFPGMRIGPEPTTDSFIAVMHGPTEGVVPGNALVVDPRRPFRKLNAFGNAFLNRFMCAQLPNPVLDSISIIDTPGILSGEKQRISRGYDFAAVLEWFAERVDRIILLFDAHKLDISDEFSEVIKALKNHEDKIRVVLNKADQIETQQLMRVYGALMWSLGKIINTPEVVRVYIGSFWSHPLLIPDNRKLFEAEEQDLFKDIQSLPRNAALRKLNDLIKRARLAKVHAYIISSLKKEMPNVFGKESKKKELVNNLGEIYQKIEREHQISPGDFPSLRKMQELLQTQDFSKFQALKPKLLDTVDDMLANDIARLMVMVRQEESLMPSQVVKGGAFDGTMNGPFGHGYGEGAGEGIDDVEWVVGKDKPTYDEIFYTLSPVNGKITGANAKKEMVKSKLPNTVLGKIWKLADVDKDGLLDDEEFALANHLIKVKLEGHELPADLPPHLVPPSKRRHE
UniProt Q9H4Z2: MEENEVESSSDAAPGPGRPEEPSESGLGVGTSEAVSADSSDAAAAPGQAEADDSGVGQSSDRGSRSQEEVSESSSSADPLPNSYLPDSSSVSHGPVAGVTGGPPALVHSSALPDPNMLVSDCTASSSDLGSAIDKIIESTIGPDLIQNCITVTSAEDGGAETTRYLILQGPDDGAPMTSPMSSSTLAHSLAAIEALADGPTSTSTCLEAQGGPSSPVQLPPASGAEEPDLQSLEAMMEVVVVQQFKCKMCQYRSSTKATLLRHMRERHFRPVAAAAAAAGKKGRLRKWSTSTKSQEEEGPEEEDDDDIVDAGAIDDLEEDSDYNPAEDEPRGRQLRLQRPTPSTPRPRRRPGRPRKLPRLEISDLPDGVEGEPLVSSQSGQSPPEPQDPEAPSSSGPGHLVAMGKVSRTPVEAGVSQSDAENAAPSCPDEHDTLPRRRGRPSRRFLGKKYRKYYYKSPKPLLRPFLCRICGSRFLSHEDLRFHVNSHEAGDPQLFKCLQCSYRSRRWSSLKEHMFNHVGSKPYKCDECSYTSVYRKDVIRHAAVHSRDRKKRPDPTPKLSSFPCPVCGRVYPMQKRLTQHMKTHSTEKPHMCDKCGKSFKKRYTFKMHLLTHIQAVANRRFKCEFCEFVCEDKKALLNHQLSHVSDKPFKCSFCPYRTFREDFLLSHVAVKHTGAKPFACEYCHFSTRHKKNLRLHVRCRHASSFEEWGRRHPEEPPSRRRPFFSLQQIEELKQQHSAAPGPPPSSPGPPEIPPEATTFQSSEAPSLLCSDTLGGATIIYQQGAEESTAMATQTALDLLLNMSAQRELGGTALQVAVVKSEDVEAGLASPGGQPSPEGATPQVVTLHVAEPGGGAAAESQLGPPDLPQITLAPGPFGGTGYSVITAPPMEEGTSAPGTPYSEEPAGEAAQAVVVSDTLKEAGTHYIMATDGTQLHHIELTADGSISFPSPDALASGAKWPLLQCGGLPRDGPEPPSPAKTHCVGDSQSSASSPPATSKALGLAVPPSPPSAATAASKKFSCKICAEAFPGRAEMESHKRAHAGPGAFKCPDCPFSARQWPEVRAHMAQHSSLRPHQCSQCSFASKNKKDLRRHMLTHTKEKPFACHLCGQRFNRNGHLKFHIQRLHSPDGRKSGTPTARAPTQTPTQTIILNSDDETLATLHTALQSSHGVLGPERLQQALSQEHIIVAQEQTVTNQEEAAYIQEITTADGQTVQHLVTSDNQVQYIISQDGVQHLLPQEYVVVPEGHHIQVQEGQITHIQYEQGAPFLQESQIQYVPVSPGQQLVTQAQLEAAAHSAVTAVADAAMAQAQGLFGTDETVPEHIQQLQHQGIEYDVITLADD
UniProt Q9H9Q2: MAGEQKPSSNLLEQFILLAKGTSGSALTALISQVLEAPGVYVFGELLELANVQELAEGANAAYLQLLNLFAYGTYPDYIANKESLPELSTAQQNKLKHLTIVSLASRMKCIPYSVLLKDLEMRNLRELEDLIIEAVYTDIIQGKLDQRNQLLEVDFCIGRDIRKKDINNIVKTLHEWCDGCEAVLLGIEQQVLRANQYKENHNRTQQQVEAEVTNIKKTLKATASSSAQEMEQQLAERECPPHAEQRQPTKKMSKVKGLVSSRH
UniProt Q9H9B4: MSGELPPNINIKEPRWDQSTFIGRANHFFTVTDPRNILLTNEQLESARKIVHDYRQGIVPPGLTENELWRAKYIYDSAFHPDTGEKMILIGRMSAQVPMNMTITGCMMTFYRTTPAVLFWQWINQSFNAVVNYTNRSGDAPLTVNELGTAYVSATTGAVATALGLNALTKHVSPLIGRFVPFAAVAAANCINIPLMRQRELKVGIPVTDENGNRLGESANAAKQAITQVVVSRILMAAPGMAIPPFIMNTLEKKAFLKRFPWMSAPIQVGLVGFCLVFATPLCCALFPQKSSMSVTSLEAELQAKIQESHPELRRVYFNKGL
UniProt Q9H6E5: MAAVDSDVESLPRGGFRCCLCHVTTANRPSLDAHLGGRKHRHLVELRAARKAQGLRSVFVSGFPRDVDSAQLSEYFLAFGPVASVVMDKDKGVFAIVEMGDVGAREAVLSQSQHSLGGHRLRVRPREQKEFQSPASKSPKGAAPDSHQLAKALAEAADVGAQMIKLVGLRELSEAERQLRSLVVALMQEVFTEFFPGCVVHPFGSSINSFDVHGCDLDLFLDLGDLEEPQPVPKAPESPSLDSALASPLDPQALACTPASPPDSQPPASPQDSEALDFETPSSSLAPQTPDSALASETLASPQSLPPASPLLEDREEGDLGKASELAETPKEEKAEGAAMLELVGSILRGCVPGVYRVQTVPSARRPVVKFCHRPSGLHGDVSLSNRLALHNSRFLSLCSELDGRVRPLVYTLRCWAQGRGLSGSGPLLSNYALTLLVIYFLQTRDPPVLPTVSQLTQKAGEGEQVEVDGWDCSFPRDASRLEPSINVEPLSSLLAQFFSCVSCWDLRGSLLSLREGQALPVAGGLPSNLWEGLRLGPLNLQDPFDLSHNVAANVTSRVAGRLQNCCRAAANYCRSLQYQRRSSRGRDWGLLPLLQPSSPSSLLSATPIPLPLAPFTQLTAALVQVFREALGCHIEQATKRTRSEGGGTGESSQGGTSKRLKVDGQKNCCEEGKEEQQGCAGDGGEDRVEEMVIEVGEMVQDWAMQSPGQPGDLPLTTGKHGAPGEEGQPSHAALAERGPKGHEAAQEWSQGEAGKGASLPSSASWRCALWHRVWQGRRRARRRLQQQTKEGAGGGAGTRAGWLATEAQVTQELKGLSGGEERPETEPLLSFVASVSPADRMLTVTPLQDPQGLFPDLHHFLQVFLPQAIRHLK
UniProt Q9HAJ7: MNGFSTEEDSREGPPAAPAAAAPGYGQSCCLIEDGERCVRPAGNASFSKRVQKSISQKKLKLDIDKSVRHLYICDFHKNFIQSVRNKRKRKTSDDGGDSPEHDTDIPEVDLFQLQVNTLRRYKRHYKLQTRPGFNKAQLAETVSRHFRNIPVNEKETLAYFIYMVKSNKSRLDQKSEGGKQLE
UniProt Q9HAV4: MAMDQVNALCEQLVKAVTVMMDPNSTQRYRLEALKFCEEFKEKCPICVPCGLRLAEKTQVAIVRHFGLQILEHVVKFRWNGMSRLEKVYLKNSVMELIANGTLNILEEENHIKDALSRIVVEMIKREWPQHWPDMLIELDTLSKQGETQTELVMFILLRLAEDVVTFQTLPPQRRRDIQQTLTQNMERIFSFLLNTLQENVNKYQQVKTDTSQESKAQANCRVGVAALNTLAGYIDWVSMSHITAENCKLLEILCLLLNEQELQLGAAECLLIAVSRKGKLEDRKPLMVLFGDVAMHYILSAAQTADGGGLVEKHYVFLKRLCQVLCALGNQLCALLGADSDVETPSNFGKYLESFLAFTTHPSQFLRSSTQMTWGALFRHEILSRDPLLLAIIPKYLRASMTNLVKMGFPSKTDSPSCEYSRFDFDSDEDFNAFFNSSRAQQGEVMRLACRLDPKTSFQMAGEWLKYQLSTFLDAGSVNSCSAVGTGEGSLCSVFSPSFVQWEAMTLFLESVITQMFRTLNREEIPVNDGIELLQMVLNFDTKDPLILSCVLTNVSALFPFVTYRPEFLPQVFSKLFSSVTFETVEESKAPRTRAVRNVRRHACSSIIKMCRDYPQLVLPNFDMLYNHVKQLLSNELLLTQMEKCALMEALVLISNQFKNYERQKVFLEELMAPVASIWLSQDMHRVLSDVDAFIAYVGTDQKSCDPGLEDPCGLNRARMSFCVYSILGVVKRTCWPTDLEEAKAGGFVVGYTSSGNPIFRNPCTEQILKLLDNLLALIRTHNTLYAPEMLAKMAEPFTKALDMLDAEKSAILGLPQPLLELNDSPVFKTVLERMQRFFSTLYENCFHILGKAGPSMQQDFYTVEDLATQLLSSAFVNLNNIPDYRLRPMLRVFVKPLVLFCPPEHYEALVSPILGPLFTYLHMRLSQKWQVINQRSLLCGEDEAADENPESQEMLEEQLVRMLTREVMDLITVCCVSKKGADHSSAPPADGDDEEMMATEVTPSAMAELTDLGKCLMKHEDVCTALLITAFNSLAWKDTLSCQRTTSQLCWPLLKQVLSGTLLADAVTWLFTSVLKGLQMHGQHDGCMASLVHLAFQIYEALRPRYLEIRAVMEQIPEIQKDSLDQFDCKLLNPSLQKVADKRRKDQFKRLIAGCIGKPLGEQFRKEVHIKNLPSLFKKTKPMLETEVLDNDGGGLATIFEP
UniProt Q9HD34: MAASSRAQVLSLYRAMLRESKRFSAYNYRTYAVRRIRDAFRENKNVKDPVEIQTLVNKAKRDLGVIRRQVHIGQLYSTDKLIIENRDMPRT
UniProt Q9HCE3: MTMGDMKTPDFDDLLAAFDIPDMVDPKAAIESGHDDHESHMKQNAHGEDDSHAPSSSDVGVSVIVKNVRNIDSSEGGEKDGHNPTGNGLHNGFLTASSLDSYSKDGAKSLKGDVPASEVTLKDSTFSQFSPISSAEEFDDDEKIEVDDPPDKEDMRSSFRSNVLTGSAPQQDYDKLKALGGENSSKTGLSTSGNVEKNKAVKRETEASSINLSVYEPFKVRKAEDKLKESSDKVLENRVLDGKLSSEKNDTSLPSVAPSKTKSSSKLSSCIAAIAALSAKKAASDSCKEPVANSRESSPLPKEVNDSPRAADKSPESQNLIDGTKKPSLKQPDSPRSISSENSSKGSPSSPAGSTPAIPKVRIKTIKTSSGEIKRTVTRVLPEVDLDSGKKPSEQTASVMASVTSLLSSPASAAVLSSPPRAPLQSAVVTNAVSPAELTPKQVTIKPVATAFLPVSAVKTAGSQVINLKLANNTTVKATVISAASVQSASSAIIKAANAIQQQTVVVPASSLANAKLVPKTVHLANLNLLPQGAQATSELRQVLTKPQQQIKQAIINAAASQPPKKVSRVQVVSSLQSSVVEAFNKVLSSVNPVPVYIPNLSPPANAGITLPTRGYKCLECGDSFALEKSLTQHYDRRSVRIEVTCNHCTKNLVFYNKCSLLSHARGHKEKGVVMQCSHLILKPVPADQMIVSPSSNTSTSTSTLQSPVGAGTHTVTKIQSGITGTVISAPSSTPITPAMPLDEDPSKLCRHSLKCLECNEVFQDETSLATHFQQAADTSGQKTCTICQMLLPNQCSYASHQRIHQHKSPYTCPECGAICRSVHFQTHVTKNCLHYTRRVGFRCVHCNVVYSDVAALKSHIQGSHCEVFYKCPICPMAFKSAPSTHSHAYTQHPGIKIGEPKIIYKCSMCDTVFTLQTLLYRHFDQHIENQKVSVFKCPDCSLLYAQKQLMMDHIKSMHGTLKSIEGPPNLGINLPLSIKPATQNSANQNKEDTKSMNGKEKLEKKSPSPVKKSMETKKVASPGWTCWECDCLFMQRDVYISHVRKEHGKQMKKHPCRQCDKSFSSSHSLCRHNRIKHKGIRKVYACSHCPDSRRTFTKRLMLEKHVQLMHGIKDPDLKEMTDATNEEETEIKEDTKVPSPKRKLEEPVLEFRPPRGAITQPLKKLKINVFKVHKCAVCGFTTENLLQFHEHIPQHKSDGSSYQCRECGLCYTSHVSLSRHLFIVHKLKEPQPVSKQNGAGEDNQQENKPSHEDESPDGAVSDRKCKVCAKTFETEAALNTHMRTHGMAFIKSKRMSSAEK

This is one part of the list. Most entries show no effect beyond the scatter of the controls.

Compound in this test: CN[C@@H]1C[C@H]2O[C@@](C)([C@@H]1OC)n1c3ccccc3c3c4c(c5c6ccccc6n2c5c31)C(=O)NC4 [staurosporine]
The test can be described thus: log2 fold change of tryptic peptide abundance, ligand vs vehicle (limited proteolysis) (log2 ratio); higher = more trypsin-susceptible (destabilized). To be noted: ligand concentration: 20 uM; sample: K562 cleared lysate; digestion: 4 min, 22 C (HT-PELSA RT4min, Orbitrap Astral).
Turning to “YTHDC2 (peptide sequence: GNVFAVEAENR, peptide start residue: 151) (UniProt Q9H6S0)”, the log2 fold change is -0.175.

For “UniProt Q9HCE7 (peptide sequence: IGTGGSVVDCR, peptide start residue: 143)”, the log2 fold change came to 0.422.

“KANSL2 (peptide sequence: NALALHAQMK, peptide start residue: 95) (UniProt Q9H9L4)”: the log2 fold change came out at 0.208.

“NEK6 (peptide sequence: HPNTLSFR, peptide start residue: 32) (UniProt Q9HC98)”: the log2 fold change came out at 0.435.

With “UniProt Q9H5V7 (peptide sequence: CELCSFR, peptide start residue: 140)”, the log2 fold change was -0.369.

Take “TUFT1 (peptide sequence: ISKPPSPKPMPVIR, peptide start residue: 373) (UniProt Q9NNX1)”: the log2 fold change was -0.367.

Turning to “EHD1 (peptide sequence: ADQIETQQLMR, peptide start residue: 221) (UniProt Q9H4M9)”, the log2 fold change amounted to 0.148.

In the case of “PPP1R3E (peptide sequence: HVQIQLQR, peptide start residue: 115) (UniProt Q9H7J1)”, the log2 fold change was -0.0911.

Turning to “IFT122 (peptide sequence: KLDSPGYAAETYLK, peptide start residue: 817) (UniProt Q9HBG6)”, the log2 fold change is 0.341.

Regarding “PHAX (peptide sequence: LGNRPEMNYK, peptide start residue: 207) (UniProt Q9H814)”, the log2 fold change came to 0.414.

With “CXorf56 (peptide sequence: SVVCSDTR, peptide start residue: 8) (UniProt Q9H5V9)”, the log2 fold change is -0.167.

Turning to “PPAN (peptide sequence: VNLNTIKR, peptide start residue: 172) (UniProt Q9NQ55)”, the log2 fold change stood at 0.468.

As for “ZNF335 (peptide sequence: CPDCPFSAR, peptide start residue: 1049) (UniProt Q9H4Z2)”, the log2 fold change is -0.285.

As for “COPS7B (peptide sequence: VKGLVSSRH, peptide start residue: 256) (UniProt Q9H9Q2)”, the log2 fold change is -0.21.

With “TMEM165 (peptide sequence: KKDEEFQR, peptide start residue: 199) (UniProt Q9HC07)”, the log2 fold change came out at 0.169.

In the case of “IPPK (peptide sequence: SLVVAHAQR, peptide start residue: 20) (UniProt Q9H8X2)”, the log2 fold change was found to be 0.682.

Consider “SFXN1 (peptide sequence: QAITQVVVSR, peptide start residue: 224) (UniProt Q9H9B4)”, for which the log2 fold change was 0.154.

Consider “MRPL47 (peptide sequence: NMLLTLEQEAKR, peptide start residue: 110) (UniProt Q9HD33)”, for which the log2 fold change stood at 0.491.

“TUT1 (peptide sequence: GHEAAQEWSQGEAGK, peptide start residue: 742) (UniProt Q9H6E5)”: the log2 fold change is -0.139.

Take “SAP30L (peptide sequence: HLYICDFHK, peptide start residue: 70) (UniProt Q9HAJ7)”: the log2 fold change is -0.467.

“XPO5 (peptide sequence: MGFPSKTDSPSCEYSR, peptide start residue: 408) (UniProt Q9HAV4)”: the log2 fold change was 0.32.

As to “UniProt Q9H9G7 (peptide sequence: SFFSAPEGYDHPLGGGR, peptide start residue: 181)”, the log2 fold change was 0.477.

“NOL6 (peptide sequence: AQLPVMVIVTPQDRK, peptide start residue: 942) (UniProt Q9H6R4)”: the log2 fold change is 0.537.

As for “UniProt Q9H8N7 (peptide sequence: DQWCTACR, peptide start residue: 496)”, the log2 fold change was -0.178.

Regarding “LYRM4 (peptide sequence: QVHIGQLYSTDKLIIENR, peptide start residue: 69) (UniProt Q9HD34)”, the log2 fold change is -0.441.

With “VTA1 (peptide sequence: ATYIHNCLK, peptide start residue: 149) (UniProt Q9NP79)”, the log2 fold change was determined as 0.338.

Consider “UniProt Q9HCE3 (peptide sequence: TSSGEIKR, peptide start residue: 382)”, for which the log2 fold change was -0.138.
